According to paper PMC6794377:
These are yes or no findings as the source states them, for the method shown. In cells and extracts the contact can be indirect. Here binding means that the protein was enriched with, or labelled near, the bait; the list need not be complete.

The chains behind the UniProt entries cited, without tags or fusion partners.
UniProt Q8BMJ2: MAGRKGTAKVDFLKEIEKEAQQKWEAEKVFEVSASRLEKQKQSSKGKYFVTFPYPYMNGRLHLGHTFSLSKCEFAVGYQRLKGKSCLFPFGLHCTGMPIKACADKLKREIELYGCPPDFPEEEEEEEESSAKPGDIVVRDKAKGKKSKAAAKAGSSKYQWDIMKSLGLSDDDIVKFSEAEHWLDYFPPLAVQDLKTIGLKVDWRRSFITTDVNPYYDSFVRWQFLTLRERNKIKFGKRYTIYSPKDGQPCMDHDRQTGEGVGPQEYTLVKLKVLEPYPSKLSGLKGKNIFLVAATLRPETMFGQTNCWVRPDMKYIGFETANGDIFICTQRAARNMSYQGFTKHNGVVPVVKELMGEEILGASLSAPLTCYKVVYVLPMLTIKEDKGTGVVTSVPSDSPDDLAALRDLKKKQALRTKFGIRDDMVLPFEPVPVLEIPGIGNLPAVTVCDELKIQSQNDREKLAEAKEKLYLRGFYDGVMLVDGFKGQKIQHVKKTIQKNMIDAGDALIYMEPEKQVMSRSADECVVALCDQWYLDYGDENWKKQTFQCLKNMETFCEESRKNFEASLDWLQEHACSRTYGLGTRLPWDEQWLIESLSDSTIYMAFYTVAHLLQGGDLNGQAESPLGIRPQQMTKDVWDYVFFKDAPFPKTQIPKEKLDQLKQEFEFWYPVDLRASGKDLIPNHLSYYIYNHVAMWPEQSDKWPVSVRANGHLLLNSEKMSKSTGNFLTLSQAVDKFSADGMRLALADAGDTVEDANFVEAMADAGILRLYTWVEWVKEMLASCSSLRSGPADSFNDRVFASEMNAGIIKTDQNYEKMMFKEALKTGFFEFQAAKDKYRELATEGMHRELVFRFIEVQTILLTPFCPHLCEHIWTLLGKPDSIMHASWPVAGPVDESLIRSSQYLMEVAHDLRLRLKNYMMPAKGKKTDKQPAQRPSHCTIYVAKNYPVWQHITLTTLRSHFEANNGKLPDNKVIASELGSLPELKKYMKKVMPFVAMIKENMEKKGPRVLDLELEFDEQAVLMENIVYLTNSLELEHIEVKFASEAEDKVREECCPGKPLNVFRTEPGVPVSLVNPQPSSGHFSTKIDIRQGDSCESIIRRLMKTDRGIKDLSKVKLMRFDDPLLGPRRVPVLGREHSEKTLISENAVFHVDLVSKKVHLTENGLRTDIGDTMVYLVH
UniProt Q99MN1: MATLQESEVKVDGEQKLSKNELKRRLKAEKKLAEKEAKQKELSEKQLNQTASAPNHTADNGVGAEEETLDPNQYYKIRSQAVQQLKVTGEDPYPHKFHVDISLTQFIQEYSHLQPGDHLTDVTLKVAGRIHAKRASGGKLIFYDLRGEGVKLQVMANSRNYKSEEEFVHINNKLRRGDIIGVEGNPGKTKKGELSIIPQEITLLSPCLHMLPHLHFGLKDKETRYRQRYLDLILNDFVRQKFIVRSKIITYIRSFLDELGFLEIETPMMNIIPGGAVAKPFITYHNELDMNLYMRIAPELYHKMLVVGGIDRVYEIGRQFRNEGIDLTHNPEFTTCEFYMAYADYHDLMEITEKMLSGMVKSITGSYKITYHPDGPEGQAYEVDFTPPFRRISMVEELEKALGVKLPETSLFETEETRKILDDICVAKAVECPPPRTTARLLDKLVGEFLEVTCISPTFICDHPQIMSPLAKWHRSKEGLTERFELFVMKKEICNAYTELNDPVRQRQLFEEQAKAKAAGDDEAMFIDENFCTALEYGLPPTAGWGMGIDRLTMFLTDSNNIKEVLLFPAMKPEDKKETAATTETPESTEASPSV
UniProt Q8R429: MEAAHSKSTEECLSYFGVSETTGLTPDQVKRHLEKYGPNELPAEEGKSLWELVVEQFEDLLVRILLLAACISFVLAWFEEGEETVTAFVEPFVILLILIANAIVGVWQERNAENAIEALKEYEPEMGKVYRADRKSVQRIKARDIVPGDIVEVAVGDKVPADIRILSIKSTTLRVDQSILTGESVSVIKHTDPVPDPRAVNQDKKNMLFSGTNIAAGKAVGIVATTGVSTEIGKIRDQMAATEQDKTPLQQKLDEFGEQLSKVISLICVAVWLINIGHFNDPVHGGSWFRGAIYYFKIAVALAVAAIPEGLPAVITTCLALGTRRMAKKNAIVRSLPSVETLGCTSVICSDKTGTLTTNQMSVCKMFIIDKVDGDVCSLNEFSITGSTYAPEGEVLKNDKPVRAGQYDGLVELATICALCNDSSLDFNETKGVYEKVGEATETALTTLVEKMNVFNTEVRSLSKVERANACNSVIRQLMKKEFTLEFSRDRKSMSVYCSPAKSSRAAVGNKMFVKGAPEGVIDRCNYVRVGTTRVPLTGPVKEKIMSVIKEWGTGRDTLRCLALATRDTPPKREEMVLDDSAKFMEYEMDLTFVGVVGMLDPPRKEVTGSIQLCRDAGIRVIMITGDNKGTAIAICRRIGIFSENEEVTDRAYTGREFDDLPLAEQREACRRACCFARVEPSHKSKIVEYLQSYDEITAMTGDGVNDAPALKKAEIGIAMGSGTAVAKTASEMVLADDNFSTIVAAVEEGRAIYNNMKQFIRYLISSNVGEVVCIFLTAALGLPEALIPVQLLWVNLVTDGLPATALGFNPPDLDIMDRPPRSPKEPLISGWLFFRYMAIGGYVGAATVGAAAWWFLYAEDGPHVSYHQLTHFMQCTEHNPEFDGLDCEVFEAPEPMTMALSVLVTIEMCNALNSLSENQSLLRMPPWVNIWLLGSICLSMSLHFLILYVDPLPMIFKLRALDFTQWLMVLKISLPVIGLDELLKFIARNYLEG
UniProt Q8CGC7: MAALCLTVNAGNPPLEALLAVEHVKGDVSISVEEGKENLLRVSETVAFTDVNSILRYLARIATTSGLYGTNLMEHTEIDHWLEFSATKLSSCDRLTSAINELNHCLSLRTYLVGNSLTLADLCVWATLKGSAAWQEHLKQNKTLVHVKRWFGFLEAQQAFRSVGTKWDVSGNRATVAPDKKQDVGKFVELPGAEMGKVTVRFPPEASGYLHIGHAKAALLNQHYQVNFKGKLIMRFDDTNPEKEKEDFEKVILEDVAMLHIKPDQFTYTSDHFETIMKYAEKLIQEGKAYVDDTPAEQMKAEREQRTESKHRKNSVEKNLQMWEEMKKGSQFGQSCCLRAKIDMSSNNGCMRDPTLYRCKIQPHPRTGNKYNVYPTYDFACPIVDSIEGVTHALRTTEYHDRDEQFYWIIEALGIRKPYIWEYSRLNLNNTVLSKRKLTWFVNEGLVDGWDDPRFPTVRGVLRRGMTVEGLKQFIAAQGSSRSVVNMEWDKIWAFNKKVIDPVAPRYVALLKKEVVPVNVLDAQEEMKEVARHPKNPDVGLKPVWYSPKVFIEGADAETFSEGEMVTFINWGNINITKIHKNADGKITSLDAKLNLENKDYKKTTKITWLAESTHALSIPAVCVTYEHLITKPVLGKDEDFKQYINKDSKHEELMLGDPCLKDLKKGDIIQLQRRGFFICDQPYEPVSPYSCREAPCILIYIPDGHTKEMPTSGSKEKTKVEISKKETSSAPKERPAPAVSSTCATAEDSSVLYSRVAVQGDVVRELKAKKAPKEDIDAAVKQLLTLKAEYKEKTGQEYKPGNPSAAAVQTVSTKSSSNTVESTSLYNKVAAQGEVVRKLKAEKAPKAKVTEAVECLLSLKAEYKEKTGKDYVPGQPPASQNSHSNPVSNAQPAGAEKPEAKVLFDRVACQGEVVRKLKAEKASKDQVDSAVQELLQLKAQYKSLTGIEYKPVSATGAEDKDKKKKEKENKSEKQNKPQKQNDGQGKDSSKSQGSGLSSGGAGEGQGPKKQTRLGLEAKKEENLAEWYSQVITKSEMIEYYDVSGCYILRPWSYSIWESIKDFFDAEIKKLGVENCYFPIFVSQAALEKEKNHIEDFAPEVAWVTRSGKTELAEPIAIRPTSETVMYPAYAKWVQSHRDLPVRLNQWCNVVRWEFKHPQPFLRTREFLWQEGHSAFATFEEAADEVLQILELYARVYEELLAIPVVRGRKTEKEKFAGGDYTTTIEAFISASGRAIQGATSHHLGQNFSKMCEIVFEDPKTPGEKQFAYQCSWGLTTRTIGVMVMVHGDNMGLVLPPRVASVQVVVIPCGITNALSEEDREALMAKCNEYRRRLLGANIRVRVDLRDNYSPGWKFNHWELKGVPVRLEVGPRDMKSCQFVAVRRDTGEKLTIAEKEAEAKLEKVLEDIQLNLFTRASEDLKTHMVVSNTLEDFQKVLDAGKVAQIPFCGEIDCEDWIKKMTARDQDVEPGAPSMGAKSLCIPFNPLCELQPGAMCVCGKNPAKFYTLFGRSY

The substances below were run against T1, native mouse ThrRS-L (mThrRS-L) (mouse (endogenous in muscle tissue and NIH/3T3)) (UniProt Q8BLY2) (assay: affinity purification with mass spectrometry; extract of mouse muscle tissue, IP with anti-mThrRS-L antibodies; SDS-PAGE, silver staining, bands cut out for MS).
T1 sequence: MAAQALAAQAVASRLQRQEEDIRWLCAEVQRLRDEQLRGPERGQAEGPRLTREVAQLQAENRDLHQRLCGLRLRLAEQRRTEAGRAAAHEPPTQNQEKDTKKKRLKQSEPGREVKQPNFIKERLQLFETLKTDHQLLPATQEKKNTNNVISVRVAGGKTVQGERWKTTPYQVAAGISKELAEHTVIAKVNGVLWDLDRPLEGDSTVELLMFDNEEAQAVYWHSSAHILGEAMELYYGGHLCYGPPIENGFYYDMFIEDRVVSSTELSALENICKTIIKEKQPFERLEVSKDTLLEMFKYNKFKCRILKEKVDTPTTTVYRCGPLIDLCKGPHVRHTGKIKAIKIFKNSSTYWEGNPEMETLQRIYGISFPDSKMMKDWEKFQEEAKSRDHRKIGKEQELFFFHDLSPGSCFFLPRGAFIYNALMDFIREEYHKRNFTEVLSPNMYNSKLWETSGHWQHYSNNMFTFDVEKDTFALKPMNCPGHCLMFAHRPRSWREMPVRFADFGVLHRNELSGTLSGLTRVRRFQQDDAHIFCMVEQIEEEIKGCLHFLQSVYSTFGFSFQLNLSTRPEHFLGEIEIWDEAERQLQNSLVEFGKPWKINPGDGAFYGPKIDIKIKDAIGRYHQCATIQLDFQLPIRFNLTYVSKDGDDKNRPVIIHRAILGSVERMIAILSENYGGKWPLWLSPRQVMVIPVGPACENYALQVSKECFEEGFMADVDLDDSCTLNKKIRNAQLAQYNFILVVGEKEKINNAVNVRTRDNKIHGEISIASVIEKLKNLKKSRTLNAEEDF

binding | Substance
binds | mouse LeuRS, endogenous in muscle tissue (from UniProt Q8BMJ2 1-1178) (enzyme)
binds | mouse LysRS, endogenous in muscle tissue (from UniProt Q99MN1 1-595) (enzyme)
binds | Atp2a1, endogenous in mouse muscle tissue (from UniProt Q8R429 1-994)
binds | mouse GluProRS, endogenous in muscle tissue (from UniProt Q8CGC7 1-1512) (enzyme)
